{"source": "paper PMC9829398", "about": "(Plant Biotechnology Journal, 2022)", "test_system": "Arabidopsis Col‐0 and fer‐4 seedlings", "assay": "Growth of Arabidopsis seedlings (root length, shoot fresh weight)", "conditions": "Col-0 vs fer-4, 5 μM for 3 days"}
{"molecule": "CN[C@@H]1C[C@H]2O[C@@](C)([C@@H]1OC)n1c3ccccc3c3c4c(c5c6ccccc6n2c5c31)C(=O)NC4", "note": "[Staurosporine]", "values": [{"measurement": "Dependence on FER of the effect on root and shoot growth", "result": "partly dependent on FER"}]}
